Results are given in words; binding and its absence hold for the method and conditions named. Binding seen in cells or lysates may run through a third protein. Some results given as binding are weak or reduced against the parent protein; the word gives no strength. Sequences can lack the tags named with a protein.
Experiments:
[1] = biological target: T1, C-terminally FLAG-tagged G2E3 (G2/M-phase-specific E3 ubiquitin ligase) (UniProt Q7L622); assay: co-IP; HEK293TN cells (text: HEK293T) transfected with G2E3-FLAG or empty FLAG plasmid, 48 h; lysed in RIPA buffer; Pierce Co-IP kit; endogenous partners detected by immunoblot
T1 sequence: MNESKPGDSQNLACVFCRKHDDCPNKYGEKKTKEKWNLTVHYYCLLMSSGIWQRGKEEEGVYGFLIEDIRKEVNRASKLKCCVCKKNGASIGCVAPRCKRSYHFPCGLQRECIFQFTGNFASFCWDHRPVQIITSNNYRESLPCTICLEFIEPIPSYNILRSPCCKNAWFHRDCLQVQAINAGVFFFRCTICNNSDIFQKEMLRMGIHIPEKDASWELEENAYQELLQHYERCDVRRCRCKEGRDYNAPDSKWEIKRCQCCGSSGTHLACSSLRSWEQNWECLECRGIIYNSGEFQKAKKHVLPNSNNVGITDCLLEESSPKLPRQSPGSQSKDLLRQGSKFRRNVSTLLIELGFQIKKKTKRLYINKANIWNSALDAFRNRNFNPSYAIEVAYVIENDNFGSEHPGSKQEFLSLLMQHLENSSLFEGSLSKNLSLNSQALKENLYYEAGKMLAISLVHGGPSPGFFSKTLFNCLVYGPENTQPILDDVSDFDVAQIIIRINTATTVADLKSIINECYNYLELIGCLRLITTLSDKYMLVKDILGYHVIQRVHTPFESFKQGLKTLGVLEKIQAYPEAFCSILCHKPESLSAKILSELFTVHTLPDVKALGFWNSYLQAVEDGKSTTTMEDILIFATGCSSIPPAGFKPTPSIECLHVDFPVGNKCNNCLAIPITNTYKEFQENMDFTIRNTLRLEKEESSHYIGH

Chains of the proteins cited; added tags and fusions are not shown.
UniProt O95166: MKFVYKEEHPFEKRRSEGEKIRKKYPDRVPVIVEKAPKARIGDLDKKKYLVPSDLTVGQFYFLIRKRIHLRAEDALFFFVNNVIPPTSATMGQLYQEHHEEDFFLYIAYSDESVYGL

[2] = biological target: T1, C-terminally FLAG-tagged G2E3 (G2/M-phase-specific E3 ubiquitin ligase); assay: co-IP; AsPC-1 cells transfected with G2E3-FLAG or empty FLAG plasmid, 48 h; lysed in RIPA buffer; Pierce Co-IP kit; endogenous partners detected by immunoblot

- binding [1]: binds
- binding [2]: binds
Substance: GABARAP (from UniProt O95166 1-117)
